The record followed here is publication doi:10.1101/362988.

Amino acid sequences for entries named in this document (tags omitted).
UniProt Q9R190: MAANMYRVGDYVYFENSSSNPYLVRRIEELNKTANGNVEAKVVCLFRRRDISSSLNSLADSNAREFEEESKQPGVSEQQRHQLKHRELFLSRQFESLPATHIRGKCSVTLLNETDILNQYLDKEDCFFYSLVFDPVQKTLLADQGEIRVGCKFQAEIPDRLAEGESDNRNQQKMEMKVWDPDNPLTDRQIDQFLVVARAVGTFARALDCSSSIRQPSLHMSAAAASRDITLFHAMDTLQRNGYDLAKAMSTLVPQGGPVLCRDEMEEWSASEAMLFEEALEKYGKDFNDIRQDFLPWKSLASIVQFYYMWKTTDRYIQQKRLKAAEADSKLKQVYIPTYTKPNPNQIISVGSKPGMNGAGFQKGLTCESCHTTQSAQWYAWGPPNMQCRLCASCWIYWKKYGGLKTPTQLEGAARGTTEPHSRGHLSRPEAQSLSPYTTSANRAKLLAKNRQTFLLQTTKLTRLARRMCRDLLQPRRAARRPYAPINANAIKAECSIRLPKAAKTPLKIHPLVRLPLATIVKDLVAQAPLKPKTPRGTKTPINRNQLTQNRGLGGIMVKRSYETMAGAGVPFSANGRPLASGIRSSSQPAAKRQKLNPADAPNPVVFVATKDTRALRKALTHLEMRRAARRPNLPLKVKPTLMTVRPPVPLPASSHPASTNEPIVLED
UniProt Q8K4B0: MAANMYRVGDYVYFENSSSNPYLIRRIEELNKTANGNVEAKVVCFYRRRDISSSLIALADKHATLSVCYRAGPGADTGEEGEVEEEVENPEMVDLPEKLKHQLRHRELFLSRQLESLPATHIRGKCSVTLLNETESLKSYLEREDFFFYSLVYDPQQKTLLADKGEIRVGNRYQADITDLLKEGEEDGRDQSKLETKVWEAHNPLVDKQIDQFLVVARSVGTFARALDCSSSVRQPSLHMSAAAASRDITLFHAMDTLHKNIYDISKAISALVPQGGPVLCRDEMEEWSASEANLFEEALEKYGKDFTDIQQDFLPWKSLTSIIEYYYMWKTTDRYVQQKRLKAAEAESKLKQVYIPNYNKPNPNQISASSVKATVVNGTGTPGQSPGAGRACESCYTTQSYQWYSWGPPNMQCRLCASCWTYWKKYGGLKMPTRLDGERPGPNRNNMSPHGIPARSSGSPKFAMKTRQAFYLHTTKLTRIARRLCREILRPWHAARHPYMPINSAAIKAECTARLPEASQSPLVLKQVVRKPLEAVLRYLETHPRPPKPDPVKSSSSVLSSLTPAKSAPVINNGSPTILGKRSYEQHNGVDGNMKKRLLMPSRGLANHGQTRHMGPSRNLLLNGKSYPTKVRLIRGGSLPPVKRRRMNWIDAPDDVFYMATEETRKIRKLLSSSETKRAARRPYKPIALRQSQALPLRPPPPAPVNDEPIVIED
UniProt Q924K8: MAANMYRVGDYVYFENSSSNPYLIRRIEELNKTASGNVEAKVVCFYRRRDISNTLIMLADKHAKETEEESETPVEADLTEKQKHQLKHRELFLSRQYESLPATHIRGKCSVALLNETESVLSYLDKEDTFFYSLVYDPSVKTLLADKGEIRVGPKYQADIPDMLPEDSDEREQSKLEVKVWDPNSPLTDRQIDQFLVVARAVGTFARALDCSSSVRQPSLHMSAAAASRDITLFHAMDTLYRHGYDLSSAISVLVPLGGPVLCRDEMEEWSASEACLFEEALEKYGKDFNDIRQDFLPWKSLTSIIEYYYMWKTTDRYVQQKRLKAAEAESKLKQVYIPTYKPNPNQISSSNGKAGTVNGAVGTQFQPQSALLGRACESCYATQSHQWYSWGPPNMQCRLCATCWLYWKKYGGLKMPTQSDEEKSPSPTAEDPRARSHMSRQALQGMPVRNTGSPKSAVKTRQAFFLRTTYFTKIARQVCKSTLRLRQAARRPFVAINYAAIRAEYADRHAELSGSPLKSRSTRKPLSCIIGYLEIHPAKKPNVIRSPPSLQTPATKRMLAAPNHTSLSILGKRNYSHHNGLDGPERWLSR
UniProt Q6PDQ2: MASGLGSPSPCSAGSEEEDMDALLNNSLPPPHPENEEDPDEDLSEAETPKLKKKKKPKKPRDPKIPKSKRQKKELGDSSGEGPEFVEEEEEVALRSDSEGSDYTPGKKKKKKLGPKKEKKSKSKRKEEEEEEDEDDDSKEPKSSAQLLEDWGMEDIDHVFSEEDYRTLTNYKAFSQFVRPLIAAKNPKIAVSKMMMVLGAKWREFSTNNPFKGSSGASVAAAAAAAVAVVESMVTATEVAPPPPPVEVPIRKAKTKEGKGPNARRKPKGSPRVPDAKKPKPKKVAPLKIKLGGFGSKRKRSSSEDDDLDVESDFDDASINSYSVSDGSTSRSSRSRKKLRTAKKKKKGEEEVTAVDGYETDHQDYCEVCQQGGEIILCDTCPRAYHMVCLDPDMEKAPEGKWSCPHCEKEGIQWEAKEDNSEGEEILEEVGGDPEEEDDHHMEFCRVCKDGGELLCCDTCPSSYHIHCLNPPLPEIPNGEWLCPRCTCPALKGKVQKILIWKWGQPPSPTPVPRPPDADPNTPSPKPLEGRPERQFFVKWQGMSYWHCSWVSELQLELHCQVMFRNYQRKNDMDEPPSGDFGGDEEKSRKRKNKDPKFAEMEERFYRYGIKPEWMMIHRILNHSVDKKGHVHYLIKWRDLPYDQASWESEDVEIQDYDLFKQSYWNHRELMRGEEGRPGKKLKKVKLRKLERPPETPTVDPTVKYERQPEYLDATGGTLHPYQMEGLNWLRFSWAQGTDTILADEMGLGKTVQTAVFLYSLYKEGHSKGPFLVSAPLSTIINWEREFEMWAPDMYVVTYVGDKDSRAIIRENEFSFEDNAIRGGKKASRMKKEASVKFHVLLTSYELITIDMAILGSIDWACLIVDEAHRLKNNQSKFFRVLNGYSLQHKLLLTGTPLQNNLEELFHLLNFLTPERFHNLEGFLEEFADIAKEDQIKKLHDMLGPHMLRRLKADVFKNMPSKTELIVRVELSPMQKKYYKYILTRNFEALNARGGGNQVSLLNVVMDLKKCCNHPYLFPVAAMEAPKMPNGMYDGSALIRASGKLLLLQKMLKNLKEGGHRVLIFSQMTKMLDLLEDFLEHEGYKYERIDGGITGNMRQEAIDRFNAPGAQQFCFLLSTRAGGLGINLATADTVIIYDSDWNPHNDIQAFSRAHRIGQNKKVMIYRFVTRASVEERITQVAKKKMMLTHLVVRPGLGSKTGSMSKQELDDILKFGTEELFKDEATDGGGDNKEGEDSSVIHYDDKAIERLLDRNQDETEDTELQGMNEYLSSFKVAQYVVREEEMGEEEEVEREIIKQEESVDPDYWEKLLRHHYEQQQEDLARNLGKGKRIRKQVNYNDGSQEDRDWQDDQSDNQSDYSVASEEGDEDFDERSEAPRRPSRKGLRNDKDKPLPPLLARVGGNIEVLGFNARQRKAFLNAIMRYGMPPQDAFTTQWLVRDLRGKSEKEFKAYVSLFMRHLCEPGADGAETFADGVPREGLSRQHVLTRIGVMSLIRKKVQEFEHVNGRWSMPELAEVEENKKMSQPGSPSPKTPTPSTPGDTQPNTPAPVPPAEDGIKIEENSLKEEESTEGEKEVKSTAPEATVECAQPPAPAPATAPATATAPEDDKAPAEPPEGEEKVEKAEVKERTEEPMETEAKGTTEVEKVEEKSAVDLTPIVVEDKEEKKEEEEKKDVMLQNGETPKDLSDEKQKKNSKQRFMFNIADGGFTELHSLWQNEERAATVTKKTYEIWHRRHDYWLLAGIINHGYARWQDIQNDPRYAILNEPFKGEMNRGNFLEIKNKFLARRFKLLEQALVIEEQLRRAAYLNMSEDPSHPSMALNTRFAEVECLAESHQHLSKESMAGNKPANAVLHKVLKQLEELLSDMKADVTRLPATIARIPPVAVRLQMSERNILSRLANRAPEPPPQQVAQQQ
UniProt Q8CHY6: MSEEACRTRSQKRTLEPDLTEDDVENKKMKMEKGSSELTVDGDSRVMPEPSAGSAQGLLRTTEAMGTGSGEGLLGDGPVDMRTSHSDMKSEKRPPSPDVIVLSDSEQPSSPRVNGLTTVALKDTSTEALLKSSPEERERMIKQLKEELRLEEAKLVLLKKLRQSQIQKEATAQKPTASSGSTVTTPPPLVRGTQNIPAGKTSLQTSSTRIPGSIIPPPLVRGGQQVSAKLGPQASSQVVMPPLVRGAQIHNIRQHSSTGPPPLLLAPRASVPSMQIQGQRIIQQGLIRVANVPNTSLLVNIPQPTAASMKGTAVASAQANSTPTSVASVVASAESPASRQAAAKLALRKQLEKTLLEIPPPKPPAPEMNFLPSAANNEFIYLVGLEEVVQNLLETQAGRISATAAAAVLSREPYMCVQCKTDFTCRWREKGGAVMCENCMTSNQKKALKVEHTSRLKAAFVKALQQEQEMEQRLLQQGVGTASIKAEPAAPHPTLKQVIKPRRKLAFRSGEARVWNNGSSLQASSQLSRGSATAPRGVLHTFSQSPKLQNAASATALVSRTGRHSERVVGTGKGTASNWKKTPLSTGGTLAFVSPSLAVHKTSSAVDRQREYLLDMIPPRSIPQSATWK
UniProt O09106: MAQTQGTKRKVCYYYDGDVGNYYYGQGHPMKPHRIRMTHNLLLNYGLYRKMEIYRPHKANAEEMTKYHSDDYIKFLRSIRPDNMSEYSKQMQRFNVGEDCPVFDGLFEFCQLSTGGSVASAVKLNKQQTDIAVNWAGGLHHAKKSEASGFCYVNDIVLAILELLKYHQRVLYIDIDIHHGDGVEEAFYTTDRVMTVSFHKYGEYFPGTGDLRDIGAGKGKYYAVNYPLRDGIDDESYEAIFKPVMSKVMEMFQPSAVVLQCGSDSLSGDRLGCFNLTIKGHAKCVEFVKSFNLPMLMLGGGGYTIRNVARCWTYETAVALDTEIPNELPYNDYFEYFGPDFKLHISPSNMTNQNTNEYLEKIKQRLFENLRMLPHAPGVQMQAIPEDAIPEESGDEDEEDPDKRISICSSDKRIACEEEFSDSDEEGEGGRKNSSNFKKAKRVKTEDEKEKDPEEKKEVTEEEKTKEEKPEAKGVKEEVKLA
UniProt Q8VHR5: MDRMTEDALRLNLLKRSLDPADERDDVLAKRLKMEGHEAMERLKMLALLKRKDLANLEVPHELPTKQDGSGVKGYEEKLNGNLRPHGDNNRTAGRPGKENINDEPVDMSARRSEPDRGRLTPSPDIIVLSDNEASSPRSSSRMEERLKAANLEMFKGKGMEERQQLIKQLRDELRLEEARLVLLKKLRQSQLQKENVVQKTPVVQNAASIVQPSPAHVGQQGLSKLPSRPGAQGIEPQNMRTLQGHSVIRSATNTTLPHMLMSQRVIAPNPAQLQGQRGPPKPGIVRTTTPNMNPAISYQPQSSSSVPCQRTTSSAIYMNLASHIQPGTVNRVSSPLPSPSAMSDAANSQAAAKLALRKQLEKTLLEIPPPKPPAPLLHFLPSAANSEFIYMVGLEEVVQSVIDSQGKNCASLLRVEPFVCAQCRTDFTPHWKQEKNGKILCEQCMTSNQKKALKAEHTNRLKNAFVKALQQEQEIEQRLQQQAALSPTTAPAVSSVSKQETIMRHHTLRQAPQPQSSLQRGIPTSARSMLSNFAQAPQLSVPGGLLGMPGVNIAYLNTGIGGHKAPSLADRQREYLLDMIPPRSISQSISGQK
UniProt Q9Z2E1: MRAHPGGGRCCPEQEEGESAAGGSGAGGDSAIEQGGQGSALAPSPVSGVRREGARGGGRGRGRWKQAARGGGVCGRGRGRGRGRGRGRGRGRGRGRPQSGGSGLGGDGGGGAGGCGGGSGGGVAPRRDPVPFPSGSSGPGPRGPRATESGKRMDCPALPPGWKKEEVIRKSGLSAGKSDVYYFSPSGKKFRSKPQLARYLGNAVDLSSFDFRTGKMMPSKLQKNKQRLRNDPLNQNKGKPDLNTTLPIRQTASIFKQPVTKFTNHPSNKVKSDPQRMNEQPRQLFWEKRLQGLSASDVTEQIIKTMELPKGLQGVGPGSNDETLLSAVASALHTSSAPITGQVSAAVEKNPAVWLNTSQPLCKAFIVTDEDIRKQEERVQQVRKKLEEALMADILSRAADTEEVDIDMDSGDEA
UniProt P70288: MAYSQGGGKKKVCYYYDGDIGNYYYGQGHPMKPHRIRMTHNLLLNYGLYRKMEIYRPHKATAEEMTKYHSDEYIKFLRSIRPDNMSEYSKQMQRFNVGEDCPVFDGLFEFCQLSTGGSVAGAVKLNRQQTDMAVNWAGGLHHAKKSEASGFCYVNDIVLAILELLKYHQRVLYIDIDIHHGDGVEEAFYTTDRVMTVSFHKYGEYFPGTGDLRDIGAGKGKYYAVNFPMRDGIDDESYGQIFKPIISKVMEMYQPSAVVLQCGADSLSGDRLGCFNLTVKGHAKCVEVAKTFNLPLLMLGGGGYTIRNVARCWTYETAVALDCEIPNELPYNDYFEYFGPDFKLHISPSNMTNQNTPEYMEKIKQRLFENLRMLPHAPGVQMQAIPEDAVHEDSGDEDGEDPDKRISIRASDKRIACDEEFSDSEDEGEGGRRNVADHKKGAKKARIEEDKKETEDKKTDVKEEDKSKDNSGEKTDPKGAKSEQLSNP

Results are given in words; binding and its absence hold for the method and conditions named. Binding seen in cells or lysates may run through a third protein. A yes stands for co-enrichment or nearness to the bait. Other partners may have been found.

What all share (experiment): affinity purification with mass spectrometry
Experiment [1] deals with Mta2-GFP (mouse (endogenous in ES cells)) (UniProt Q9R190).
For experiment [2], the target named is Mta1-Avi-3xFLAG (mouse (endogenous in ES cells)) (UniProt Q8K4B0).
Experiment [3] addresses Mta3-Avi-3xFLAG (mouse (endogenous in ES cells)) (UniProt Q924K8).

Turning to Chd4 (from UniProt Q6PDQ2 1-1915), the binding result in experiment [1], in experiment [2] and in experiment [3] was “binds” each time.
In the case of Gatad2a (from UniProt Q8CHY6 1-629), the binding entry in experiment [2] and in experiment [3] was “binds” each time.
For the molecule Mta2 (from UniProt Q9R190 1-668), the binding entry in experiment [2] and in experiment [3] was “binds” throughout.
As to Zfp296 (from UniProt E9Q6W4), the binding entry in experiment [1], in experiment [2] and in experiment [3] was “binds” throughout.
As for Mta3 (from UniProt Q924K8 1-591), the binding entry in experiment [1] and in experiment [2] was “binds” each time.
Zfp512b (from UniProt B7ZCR6): in experiment [1], the binding result is given as “binds”.
For Hdac1 (from UniProt O09106 1-482), the binding entry in experiment [1], in experiment [2] and in experiment [3] was “binds” each time.
As for Gatad2b (from UniProt Q8VHR5 1-594), the binding result in experiment [1] and in experiment [2] was “binds” in each case.
Take Mbd2 (from UniProt Q9Z2E1 1-414): the binding result in experiment [1], in experiment [2] and in experiment [3] was “binds” each time.
Hdac2 (from UniProt P70288 1-488): the binding result in experiment [1], in experiment [2] and in experiment [3] was “binds” in each case.
As for Mta1 (from UniProt Q8K4B0 1-715), the binding entry in experiment [1] and in experiment [3] was “binds” in each case.

B1: Pwwp2a (protein, UniProt Q69Z61 1-730)
chain: MAAVAAEAAATAASPGEGGAGEAEPELEPIPGSEAGTPLPVTATEAAVPDGEADGRQSAPQADEQPLPPPPPPPPPGELADSSEAEEAKPPEPAAVPVSPPEQPPAAPEQPEDAPRPPPAPALVPPAGGDSAVSHLIPGSEVRVTLDHIIEDALVVSFRLGEKLFSGVLMDLSKRFGPHGIPVTVFPKREYKDKPDAMQLQSTTFQEGIEVKQEVNGAVPDDLSPVPPPERLWASKPPPLFHEGAPYPPPLFIRDTYNQSIPQPPPRKIKRPKRKMYREEPTSIMNAIKLRPRQVLCDKCKNSVVAEKKEIRKGSSDSSRYEDKKRRNDSVATVNKKLKTDHKVDGKNQNESQRRNTVVRVSSIAHSRGRVVKVSAQANTSKAQLNTKKVLQSKNMDHAKAREVLKIAKEKAQKKQSETSTSKTAHAKVHFTRRYQSPSSGSLPPRVRLKPQRYRNEENDSSLKTGLEKIRSGKLAPKPQSRCTSTRSAGEAPSEKPSPSEGPEESAGEVQDTSRVRVPGEQEELRMLGKKGSKSSISVYLTLNQETSDSSSASVCSIDSMDDLKSSNSECSSSESFVFPPGCMHAPSASSTSTSFSSKEENSLRNSLKMKIFSKNVSKCITPDGRTICVGDIVWAKIYGFPWWPARILTITVSRKDNGLLARQEARISWFASPTTSSLALSQLSPFLENFQLRFNKKRKGLYRRAITEAAKAAKQLTPEVRALLTQFET
As to B1, in experiment [2], the binding result is recorded as “binds”.

B2: Cdk2ap1 (protein, UniProt O35207 1-114)
chain: MSYKPNLTAHMPAAALNAGSVHSPSTSMATSSQYRQLLSDYGPPSLGYTQGTGNSQVPQSKYAELLAIIEELGKEIRPTYAGSKSAMERLKRGIIHARSLVRECLAETERNARS
For B2, the binding entry in experiment [1], in experiment [2] and in experiment [3] was “binds” in each case.

B3: Zfp219 (protein, UniProt Q6IQX8 1-726)
chain: MEGSRPRILVGHLEPSPPAFDGELDLQRYSNGPGVSGTPGPGSPGMGAVGWSETRAGERRFPCPVCGKRFRFNSILALHLRAHPGAQAFQCPHCGHRAAQRALLRSHLRTHQPERPRSPAARLLLELEERALLREARLGRARSSGGMQSSPAAEGLARPQVPSSSAFRCPFCKGKFRTSAERERHLHILHRPWKCSLCSFGSSQEEELLHHSLTAHGASERPLAATSTPEPPPPPQQEPRSALEPEPEPEPRPEPDREANPAPTPAPPEEPPAPPEFRCQVCGQSFTQSWFLKGHMRKHKASFDHACPVCGRCFKEPWFLKNHMKVHTSKLGPLRAPGPGSAPARAPQPPDLSLLAYEPLGPALLLAPAPAPAERREPPSLLGYLSVRAGEVRPNGEGADPGGGRSYGGFRPLPSALPNRARRHRTEEPEEEEEVVEAEEESWARGRSLGSLTSLHPNPGEGSGQPAPAAGTQARSTATQEENGLLVGGTRSEAGRGATGKDCPFCGKSFRSAHHLKVHLRVHTGERPYKCPHCDYAGTQSGSLKYHLQRHHREQRSSAGPGPPPEPPPPSQRGSLQPQSGAKPTQASATWVEGTASTRPPSSSTGPGSRRKPASPGRTLRNGRGGEAEPLDLSLRAGPGGEAGAGGALHRCLFCPFATGAPELMALHLQVHHSRRARGRRQPRADTSPTYVRAPSGETPPSPPLEEEGSPGLSRSGEAGLGGQER
For the molecule B3, the binding entry in experiment [1] is recorded as “binds”.
